Assay results taken from article PMC9870865.

Protein sequences, listed by entry. Tags and fused reporters are not part of them.
UniProt P12956: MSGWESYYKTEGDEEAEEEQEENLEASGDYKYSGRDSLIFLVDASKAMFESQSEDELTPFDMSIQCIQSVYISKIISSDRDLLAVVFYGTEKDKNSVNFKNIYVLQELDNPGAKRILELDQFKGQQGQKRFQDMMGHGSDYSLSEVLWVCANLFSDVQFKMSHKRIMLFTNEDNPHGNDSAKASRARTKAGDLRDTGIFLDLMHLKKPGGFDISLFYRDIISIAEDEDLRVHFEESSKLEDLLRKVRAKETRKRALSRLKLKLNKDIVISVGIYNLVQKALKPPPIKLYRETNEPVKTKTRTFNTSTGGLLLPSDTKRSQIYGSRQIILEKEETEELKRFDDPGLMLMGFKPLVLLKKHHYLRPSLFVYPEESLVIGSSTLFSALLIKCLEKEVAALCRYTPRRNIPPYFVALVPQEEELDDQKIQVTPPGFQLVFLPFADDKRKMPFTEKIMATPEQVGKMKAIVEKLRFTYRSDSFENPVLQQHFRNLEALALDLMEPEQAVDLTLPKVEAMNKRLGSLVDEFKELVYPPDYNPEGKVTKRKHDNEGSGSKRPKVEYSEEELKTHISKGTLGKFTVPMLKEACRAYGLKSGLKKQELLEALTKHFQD
UniProt P13010: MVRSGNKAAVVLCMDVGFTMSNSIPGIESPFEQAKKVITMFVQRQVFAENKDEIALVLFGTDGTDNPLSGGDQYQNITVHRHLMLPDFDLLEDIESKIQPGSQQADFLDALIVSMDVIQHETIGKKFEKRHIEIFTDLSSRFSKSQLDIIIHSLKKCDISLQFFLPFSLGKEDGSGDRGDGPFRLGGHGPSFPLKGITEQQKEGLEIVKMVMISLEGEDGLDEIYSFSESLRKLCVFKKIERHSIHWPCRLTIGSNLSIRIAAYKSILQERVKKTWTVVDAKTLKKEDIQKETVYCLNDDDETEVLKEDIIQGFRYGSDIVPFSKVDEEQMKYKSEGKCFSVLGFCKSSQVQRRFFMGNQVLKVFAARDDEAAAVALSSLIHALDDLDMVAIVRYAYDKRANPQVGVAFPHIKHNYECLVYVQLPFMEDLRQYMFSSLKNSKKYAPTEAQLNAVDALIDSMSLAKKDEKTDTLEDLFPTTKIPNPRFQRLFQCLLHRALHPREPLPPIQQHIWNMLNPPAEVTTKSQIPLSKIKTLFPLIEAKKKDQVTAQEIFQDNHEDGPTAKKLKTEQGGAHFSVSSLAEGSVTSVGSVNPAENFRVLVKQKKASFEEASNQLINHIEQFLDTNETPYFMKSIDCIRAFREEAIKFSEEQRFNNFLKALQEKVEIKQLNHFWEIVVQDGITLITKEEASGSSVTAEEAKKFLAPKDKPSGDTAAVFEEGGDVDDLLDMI
UniProt Q9Y265: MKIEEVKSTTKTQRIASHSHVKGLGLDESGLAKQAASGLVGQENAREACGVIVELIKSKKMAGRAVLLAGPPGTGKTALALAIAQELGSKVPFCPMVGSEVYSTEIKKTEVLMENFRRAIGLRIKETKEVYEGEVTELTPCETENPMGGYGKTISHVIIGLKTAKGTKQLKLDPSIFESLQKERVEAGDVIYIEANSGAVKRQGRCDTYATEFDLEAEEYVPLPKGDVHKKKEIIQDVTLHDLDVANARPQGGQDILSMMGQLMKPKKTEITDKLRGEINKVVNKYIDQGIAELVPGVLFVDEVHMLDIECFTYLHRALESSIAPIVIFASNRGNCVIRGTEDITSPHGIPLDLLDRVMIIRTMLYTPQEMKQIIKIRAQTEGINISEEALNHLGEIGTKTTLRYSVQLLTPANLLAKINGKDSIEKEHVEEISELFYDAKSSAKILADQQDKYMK
UniProt Q99873: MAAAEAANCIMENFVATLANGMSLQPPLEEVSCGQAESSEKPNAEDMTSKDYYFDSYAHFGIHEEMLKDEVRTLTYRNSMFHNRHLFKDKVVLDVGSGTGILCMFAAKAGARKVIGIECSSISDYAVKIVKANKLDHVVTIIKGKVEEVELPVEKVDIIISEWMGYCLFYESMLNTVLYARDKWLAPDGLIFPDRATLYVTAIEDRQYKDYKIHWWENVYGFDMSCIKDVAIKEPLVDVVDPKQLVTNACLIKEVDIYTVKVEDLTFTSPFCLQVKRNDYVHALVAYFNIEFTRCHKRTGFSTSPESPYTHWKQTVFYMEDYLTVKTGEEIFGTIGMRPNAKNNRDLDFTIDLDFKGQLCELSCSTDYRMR
UniProt P78527: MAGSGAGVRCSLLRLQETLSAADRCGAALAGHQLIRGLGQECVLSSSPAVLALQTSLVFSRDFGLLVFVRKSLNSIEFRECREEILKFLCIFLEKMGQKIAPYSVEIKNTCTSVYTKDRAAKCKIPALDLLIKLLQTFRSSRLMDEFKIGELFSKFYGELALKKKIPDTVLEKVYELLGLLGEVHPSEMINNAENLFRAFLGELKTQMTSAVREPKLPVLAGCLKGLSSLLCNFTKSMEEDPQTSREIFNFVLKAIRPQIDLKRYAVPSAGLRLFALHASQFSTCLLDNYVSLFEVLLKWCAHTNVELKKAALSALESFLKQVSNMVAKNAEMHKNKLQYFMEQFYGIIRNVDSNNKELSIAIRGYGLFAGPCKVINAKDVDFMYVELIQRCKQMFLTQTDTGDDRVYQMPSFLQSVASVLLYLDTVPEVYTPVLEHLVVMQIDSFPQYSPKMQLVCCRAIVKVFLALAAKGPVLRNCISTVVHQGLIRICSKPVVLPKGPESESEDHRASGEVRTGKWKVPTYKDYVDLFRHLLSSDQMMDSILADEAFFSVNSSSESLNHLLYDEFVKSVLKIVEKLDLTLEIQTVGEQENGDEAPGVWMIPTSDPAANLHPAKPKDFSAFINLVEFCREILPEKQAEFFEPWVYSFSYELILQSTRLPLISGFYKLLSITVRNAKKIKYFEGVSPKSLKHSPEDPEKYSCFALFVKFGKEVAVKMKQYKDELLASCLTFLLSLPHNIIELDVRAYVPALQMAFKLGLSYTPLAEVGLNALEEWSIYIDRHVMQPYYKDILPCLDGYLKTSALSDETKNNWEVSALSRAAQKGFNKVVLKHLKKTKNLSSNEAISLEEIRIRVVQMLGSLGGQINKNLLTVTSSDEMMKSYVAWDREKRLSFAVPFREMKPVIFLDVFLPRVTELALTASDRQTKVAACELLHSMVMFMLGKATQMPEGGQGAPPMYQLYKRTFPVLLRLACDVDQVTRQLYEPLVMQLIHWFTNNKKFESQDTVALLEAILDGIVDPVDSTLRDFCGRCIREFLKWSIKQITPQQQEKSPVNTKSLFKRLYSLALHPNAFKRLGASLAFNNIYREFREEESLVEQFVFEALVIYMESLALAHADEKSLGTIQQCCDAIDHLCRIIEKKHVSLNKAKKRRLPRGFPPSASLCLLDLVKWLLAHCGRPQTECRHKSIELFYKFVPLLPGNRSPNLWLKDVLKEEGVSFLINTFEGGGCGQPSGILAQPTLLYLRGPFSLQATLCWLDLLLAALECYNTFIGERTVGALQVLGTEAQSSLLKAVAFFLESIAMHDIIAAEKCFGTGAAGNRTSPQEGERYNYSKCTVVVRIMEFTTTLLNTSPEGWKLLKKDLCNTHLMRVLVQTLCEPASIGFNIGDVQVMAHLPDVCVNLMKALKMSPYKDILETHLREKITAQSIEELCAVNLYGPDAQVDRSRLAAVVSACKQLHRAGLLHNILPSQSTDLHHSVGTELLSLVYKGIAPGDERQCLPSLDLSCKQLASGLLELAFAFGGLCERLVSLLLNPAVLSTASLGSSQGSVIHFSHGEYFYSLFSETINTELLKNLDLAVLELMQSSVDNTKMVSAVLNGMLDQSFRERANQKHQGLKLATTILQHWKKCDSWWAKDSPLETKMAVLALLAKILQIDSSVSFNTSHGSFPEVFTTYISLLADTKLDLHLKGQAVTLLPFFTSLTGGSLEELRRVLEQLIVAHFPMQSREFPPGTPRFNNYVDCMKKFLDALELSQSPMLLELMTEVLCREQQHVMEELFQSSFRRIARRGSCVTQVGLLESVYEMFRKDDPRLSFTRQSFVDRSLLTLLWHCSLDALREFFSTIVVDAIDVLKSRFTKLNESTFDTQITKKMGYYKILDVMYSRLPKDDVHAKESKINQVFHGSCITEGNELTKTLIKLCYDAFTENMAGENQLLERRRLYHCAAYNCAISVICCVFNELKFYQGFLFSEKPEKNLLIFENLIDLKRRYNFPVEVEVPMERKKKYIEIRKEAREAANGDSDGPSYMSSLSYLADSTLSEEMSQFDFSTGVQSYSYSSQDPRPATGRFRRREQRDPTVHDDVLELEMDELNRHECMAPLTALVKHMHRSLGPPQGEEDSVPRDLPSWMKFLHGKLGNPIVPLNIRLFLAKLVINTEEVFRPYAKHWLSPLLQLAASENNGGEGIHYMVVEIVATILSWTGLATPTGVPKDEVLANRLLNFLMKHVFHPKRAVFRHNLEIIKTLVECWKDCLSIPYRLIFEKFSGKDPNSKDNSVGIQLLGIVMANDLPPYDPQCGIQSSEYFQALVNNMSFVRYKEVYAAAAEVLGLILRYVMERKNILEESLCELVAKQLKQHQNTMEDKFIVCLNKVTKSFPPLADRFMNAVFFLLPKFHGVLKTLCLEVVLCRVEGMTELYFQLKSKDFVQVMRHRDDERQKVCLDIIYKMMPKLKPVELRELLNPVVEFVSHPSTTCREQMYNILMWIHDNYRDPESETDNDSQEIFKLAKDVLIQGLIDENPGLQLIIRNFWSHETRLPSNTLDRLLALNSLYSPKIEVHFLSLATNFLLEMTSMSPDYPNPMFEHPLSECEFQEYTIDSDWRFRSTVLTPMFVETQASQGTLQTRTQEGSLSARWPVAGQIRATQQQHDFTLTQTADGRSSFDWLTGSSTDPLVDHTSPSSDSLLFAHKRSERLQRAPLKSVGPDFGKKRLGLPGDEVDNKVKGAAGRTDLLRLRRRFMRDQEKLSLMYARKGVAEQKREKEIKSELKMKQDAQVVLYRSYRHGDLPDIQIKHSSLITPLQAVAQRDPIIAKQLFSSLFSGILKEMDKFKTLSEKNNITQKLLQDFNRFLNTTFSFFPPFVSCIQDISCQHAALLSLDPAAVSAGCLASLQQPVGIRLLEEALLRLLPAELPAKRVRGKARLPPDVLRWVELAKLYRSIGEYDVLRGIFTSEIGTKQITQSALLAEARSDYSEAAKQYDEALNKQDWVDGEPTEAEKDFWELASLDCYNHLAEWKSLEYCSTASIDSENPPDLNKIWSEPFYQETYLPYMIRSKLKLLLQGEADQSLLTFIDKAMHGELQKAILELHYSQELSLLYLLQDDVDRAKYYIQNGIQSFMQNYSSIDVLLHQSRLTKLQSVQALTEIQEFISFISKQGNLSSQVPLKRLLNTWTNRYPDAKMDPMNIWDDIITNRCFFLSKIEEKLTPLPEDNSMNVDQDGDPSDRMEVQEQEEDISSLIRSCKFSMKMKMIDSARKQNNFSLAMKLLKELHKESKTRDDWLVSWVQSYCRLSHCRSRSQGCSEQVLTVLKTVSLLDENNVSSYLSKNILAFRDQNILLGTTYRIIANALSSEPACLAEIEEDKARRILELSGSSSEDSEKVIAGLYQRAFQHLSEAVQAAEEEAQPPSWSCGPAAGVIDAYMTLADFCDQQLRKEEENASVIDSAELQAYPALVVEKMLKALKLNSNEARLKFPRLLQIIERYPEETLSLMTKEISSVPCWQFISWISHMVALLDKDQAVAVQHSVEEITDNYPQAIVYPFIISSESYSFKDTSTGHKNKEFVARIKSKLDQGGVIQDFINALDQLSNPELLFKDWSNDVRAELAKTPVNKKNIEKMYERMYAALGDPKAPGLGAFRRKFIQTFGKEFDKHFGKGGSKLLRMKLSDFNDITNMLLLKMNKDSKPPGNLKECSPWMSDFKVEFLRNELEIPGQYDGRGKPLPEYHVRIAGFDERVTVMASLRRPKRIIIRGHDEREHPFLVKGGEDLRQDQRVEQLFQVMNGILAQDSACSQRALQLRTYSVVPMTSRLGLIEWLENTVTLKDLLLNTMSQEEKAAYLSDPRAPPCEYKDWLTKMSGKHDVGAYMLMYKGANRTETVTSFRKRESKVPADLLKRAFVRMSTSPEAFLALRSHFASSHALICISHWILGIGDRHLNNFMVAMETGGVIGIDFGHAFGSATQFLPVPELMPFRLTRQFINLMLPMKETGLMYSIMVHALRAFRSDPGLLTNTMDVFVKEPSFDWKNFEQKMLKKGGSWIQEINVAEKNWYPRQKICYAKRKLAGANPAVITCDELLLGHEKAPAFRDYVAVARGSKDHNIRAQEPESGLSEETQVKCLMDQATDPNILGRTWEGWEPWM

T1: GFP-TRIM29 (UniProt Q14134)
T1 sequence: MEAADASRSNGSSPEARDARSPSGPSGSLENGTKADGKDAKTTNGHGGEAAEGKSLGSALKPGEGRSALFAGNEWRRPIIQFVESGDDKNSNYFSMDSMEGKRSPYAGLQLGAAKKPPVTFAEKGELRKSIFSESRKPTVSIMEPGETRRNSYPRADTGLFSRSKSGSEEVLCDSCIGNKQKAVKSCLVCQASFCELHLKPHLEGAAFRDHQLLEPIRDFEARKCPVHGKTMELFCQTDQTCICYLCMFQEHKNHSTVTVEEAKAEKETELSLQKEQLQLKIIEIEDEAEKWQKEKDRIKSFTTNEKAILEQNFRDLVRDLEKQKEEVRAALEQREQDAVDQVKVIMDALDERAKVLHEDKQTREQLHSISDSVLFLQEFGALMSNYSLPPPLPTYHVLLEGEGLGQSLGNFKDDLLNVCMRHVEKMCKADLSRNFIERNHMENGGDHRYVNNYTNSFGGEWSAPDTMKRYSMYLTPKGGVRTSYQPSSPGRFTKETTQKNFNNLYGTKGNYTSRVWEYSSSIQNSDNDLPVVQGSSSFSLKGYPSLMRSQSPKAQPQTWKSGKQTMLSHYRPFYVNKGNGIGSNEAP

B1: TRIM29 (endogenous) (protein, UniProt Q14134 1-588)
chain: MEAADASRSNGSSPEARDARSPSGPSGSLENGTKADGKDAKTTNGHGGEAAEGKSLGSALKPGEGRSALFAGNEWRRPIIQFVESGDDKNSNYFSMDSMEGKRSPYAGLQLGAAKKPPVTFAEKGELRKSIFSESRKPTVSIMEPGETRRNSYPRADTGLFSRSKSGSEEVLCDSCIGNKQKAVKSCLVCQASFCELHLKPHLEGAAFRDHQLLEPIRDFEARKCPVHGKTMELFCQTDQTCICYLCMFQEHKNHSTVTVEEAKAEKETELSLQKEQLQLKIIEIEDEAEKWQKEKDRIKSFTTNEKAILEQNFRDLVRDLEKQKEEVRAALEQREQDAVDQVKVIMDALDERAKVLHEDKQTREQLHSISDSVLFLQEFGALMSNYSLPPPLPTYHVLLEGEGLGQSLGNFKDDLLNVCMRHVEKMCKADLSRNFIERNHMENGGDHRYVNNYTNSFGGEWSAPDTMKRYSMYLTPKGGVRTSYQPSSPGRFTKETTQKNFNNLYGTKGNYTSRVWEYSSSIQNSDNDLPVVQGSSSFSLKGYPSLMRSQSPKAQPQTWKSGKQTMLSHYRPFYVNKGNGIGSNEAP

Each molecule was assayed against T1, GFP-TRIM29 (assay: affinity purification with mass spectrometry; GFP-Trap of GFP-TRIM29 (GFP as control) from stably expressing H69 SCLC cells lysed in NP-40 buffer; LC-MS/MS).

binding, binds:
XRCC6 (from UniProt P12956 1-609)
XRCC5 (from UniProt P13010 1-732)
RUVBL1 (from UniProt Q9Y265 1-456)
NFIB (endogenous) (from UniProt O00712 1-420)
PRMT1 (from UniProt Q99873 1-371)
DNA-PK (from UniProt P78527 1-4128)

What follows are molecules tested against GFP-NFIB-WT (mouse) (UniProt P97863) (assay: affinity purification with mass spectrometry; GFP-Trap of GFP-NFIB-WT or GFP-NFIB-R388K from transiently transfected HeLa cells lysed in NP-40 buffer 24 h after transfection; LC-MS/MS).

binding, binds:
B1

No constants are given. Whether binding was seen depends on the method and setting. Binding seen in cells or lysates may run through a third protein. A yes stands for co-enrichment or nearness to the bait. Other partners may have been found. For some of these results: Where a sequence is shown, tags or fusion partners need not be part of it.
